Assay results: paper PMC6733924
Results are given in words; binding and its absence hold for the method and conditions named. Binding seen in cells or lysates may run through a third protein. Binding can be weak; no strength is given.

By UniProt entry, the sequences of proteins in these tests, tags left out. Where a name states a change or a piece, a line headed by the entry shows the natural chain unless it says otherwise.
UniProt Q7Z2W7: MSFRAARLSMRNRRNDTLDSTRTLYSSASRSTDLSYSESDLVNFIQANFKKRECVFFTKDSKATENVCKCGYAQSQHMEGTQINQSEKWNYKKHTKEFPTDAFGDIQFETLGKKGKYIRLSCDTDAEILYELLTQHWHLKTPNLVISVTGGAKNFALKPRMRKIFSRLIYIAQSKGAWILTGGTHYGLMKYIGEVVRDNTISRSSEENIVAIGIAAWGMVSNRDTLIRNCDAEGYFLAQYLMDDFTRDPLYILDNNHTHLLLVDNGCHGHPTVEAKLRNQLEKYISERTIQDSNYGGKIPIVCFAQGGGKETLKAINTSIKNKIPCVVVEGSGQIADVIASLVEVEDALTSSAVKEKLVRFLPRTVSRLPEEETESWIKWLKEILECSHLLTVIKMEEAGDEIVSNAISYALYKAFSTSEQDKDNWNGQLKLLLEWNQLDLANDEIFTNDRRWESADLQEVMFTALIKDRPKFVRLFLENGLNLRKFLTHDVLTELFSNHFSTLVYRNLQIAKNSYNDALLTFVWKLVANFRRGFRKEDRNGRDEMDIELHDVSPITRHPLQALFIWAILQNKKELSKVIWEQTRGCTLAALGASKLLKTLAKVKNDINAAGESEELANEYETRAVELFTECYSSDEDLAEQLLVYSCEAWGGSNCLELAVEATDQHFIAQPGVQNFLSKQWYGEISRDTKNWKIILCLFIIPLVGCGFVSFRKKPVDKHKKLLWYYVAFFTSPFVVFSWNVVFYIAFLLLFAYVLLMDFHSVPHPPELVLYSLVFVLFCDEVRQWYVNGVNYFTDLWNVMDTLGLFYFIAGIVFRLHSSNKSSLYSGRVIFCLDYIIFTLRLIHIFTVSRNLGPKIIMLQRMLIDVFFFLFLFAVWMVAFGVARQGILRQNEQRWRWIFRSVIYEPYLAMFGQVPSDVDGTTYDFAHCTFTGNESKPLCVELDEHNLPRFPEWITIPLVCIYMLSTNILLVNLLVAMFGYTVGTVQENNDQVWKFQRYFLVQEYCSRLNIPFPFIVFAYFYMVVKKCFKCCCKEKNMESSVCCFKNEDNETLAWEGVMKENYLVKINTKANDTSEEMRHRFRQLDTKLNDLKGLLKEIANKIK
UniProt P10275: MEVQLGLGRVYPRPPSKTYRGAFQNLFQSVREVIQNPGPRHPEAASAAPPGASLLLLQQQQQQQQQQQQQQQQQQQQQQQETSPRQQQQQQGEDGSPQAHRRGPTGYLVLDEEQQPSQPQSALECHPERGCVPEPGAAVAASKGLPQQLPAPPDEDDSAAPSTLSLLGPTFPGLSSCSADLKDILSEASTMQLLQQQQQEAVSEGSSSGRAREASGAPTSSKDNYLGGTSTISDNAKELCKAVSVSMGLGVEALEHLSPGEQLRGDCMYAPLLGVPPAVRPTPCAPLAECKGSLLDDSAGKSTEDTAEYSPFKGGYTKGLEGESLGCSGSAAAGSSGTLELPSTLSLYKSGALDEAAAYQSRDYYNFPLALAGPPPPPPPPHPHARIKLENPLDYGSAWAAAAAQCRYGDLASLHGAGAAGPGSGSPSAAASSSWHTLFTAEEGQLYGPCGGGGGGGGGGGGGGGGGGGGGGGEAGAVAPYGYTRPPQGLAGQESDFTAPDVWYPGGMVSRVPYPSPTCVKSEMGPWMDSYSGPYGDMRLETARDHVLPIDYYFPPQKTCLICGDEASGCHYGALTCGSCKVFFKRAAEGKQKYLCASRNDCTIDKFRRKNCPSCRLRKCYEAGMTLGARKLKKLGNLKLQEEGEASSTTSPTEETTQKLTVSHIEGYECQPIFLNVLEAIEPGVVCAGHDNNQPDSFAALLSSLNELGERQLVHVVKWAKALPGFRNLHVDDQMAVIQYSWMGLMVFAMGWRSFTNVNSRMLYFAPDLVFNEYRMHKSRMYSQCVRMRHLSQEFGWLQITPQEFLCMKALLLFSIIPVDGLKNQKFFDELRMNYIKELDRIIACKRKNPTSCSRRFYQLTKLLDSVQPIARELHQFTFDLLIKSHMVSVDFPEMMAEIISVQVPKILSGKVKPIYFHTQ

Molecular target: full-length his-tagged TRPM8 (UniProt Q7Z2W7)
Experiment: co-IP; PC3-TRPM8 cells transfected with peGFP-AR (wild-type, 23 or Q640X); lysate (1% Triton X-100, 1% sodium deoxycholate, 150 mM NaCl) incubated overnight at 4 °C with His-tag beads in IP buffer (20 mM NaH2PO4, 150 mM NaCl, pH 8); AR detected with anti-GFP; cells treated with vehicle or 1, 10, 100 nM testosterone for 20 min (wild type: decrease by 58.2%-68.4% at 10-100 nM)

binding: binds
Substance: cytosolic AR mutant AR23-GFP (from UniProt P10275)
